From PubChem BioAssay AID493014 (National Center for Advancing Translational Sciences (NCATS), 2011)
About 170 (0.05%) of roughly 340,000 compounds were called active. This list was built around the results that the source calls inconclusive (neither active nor inactive); the mix of calls is not that of the screen. The call rests on the fitted dose curve; in most records, active means well fitted inhibition curve with a large enough effect in the signal ratio, with a control signal flat (not every such curve was filed as active); inconclusive means small, poorly fitted or top-dose-only effect, or effect the other way, or a change in a side signal; inactive means flat fitted curve, though single readings scatter; the % refers to the signal ratio. Where the call is inconclusive, the potency comes from a doubtful curve fit.

Assay: qHTS Assay to Find Inhibitors of Chronic Active B-Cell Receptor Signaling;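 on activity change, negative = inhibition: plate controls were basal doxycycline-induced cells for no effect and cells given 10 µM MG132 for full effect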
Settings: ABC-DLBCL IkBa-CBG/CBR reporter, luminescence ratio (green luciferase fused to IkBa over red control in TMD8 lymphoma cells), 4 h; activity change, negative = inhibition: at 46.1 µM (top of the series)
How it was run: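 TMD8 human ABC-DLBCL cells with doxycycline-inducible IκBα–green luciferase fusion and unfused red luciferase, in 0.5% FBS medium; compounds up to 46 uM, 4 h at 37C. Green/red luminescence ratio, filter-overlap corrected, fitted to concentration-response curves.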
Potency means the concentration at half of the fitted maximal effect.

SMILES | activity change, negative = inhibition | Potency
CC1(C)CC(=O)C2=C(C1)Nc1ccccc1N=C2 | inactive | –
N#C/C(=C/c1ccc(N2CCOCC2)o1)c1ccc(Br)cc1 | inactive | –
CCCNC(=O)CC1C(=O)N(Cc2ccccc2)C(C)c2nc3ccccc3n21 (stereo not drawn) | inconclusive: -14.3% | –
CN(CC(=O)Nc1ccc(S(N)(=O)=O)cc1)C1CCCCC1 | – | inconclusive: 35.5 µM [falling, partial curve, poor fit]
Cc1nc(-c2ccc(S(=O)(=O)N3CCN(C4c5ccccc5-c5ccccc54)CC3)s2)cs1 | inactive | –
Cc1ccc2nc3c(cc(C(=O)NCCCn4ccnc4)n3C)c(=O)n2c1 | inconclusive: 10.1% | –
O=C(CN1C(=O)S/C(=C\c2ccc(F)cc2)C1=O)NCCCn1ccnc1 | – | inconclusive: 11.2 µM [falling, partial curve]
Cc1ccc(CN2CC(C(=O)Nc3ccncc3)CC2=O)cc1 (stereo not drawn) | inconclusive: 8.73% | –
Cc1[nH]c2ccccc2c1/C=N/Nc1nncn1N | – | inconclusive: 11.2 µM [falling, partial curve]
O=C(CCc1ccc(S(=O)(=O)N2CCOCC2)cc1)OCC(=O)c1ccccc1F | inactive | –
COc1ccc(CN(C)Cc2nc3scc(-c4ccccc4)c3c(=O)[nH]2)cc1OC | inconclusive: -12.1% | –
Cc1ccc(CN(CC2CCCO2)C(=O)CN2C(=O)C(C(C)C)Oc3ccccc32)o1 (stereo not drawn) | inactive | –
CC(=O)Nc1ccc(NC(=O)C(NS(=O)(=O)c2cccc3nsnc23)C(C)C)cc1 (stereo not drawn) | inactive | –
C=CC[C@H](CC(=O)NCCO)C(=O)N[C@@H](COC(=O)[C@H](CC=C)CC(=O)OC(C)(C)C)Cc1ccccc1 | inactive | –
Cc1cc(C)cc(-n2cc(C(=O)O)c(=O)cc2C)c1 | inconclusive: 14.5% | –
CCCOc1cccc(-c2cc(C(=O)NNC(=S)NCC)c3ccccc3n2)c1 | inconclusive: 2.8% | –
CSc1nnc(-c2sc3cc(C(F)(F)F)cnc3c2-c2ccccc2)n1C | – | inconclusive: 2.31 µM [falling, partial curve, poor fit]
Cc1cc2oc(=O)cc(-c3ccccc3)c2c(C)c1-c1ccc(O)cc1 | inactive | –
Cc1ccc(S(=O)(=O)Nc2ncnc3sc(C)c(C)c23)cc1 | inconclusive: -9.02% | –
NC(=O)C1=NOC(CNc2ncc(C(F)(F)F)cc2Cl)C1 (stereo not drawn) | inconclusive: 13% | –
COc1ccccc1NC(=O)Cn1cnc2c(nnn2-c2ccc(C)cc2)c1=O | inconclusive: 2.67% | –
O=C(CC(Nc1ccccc1)C(=O)O)c1ccccc1 (stereo not drawn) | inactive | –
O=C(O)Cc1coc2cc3c(cc12)CCC3 | inactive | –
c1cncc(-c2noc(CC3CCCCC3)n2)c1 | inconclusive: 5.12% | –
Cn1cc(C(=O)C(=O)N2CCN(c3ccccc3)CC2)c2ccccc21 | – | inconclusive: 14.1 µM [falling, partial curve]
Cn1c(SCC(=O)N2c3ccccc3CCc3ccccc32)nnc1-c1ccc(O)cc1 | inconclusive: -5.11% | –
CCCS(=O)(=O)Nc1c(C(=O)O)[nH]c2ccc(OC)cc12 | inconclusive: -2.48% | –

Entries of single compounds as entered above:
CCCOc1cccc(-c2cc(C(=O)NNC(=S)NCC)c3ccccc3n2)c1 is listed with activity change, negative = inhibition: inconclusive: 2.8%
COc1ccccc1NC(=O)Cn1cnc2c(nnn2-c2ccc(C)cc2)c1=O is listed with activity change, negative = inhibition: inconclusive: 2.67%
O=C(CCc1ccc(S(=O)(=O)N2CCOCC2)cc1)OCC(=O)c1ccccc1F is listed with activity change, negative = inhibition: inactive

Next part

SMILES | activity change, negative = inhibition | Potency
COc1ccc(/C=N/Nc2nccnc2Cl)c(OC)c1 | – | inconclusive: 15.8 µM [cytotoxic, partial curve]
COc1ccccc1CCC(=O)Nc1ccc2c(c1)CN(Cc1ccc(C)o1)CC2 | – | inconclusive: 25.1 µM [falling, partial curve, poor fit]
Cc1[nH]c2ccccc2c1C(=O)CN1C(=O)C(=O)N(Cc2ccco2)C1=O | inactive | –
O=C(Cn1cnc2cc([N+](=O)[O-])ccc2c1=O)Nc1ccc2c(c1)OCO2 | inconclusive: -16.6% | –
COc1ccc2cc(C(=O)NCc3ccco3)c(=Nc3ccc(C(=O)O)cc3)oc2c1 | – | inconclusive: 0.259 µM [falling, partial curve, poor fit]
Cc1[nH]c2ccccc2c1N=Nc1ccccc1C(=O)O | – | inconclusive: 8.2 µM [falling, partial curve]
COc1ccc(C(=S)Nc2ccc(C)cc2)cc1 | inactive | –
COc1ccc(CNc2ncc(-c3ccc(Cl)cc3)n2C)c(OC)c1OC | inactive | –
CCOC(=O)c1c(Nc2ccccc2)sc(/C=C2\C=Nc3ccccc32)c1O | – | inconclusive: 29.1 µM [falling, single point]
Brc1ccc(OCCCN2CCOCC2)cc1 | inconclusive: 15.7% | –
Fc1cccc(Cl)c1Cn1nnc2c(NCc3ccccn3)ncnc21 | inconclusive: 0.0202% | –
CCCc1cc(=O)[nH]c(SCC(=O)Nc2nc(-c3ccccc3)cs2)n1 | inconclusive: 6.67% | –
CCOc1ccccc1N(CC(=O)NC1CCCCC1)C(=O)CCC(=O)Nc1cc(C)ccn1 | – | inconclusive: 22.4 µM [falling, partial curve, poor fit]
Cc1ccc(/C=C/C2=NN(Cc3ccccc3Cl)C(=O)CC2)cc1 | inconclusive: 20.6% | –
CC1C/C(=N/NC(=O)c2ccc(CSc3nc4ccccc4[nH]3)cc2)CC(C)(C)C1 (stereo not drawn) | inconclusive: -1.99% | –
O=S(=O)(NCCc1cn2ccccc2n1)c1ccc(-c2ccccc2)cc1 | inconclusive: 1.45% | –
CCC(C)NC(=O)c1cc2c(=O)[nH]c3ccc(C)cc3c2s1 (stereo not drawn) | inconclusive: 6.29% | –
COc1cccc(C=Nc2ccccc2C(=O)Nc2nccs2)c1OC | inactive | –
CC(C)CNC(=O)COc1ccc(Sc2ccc(OCC(=O)NCC(C)C)cc2)cc1 | inactive | –
CCCNC(=O)COC(=O)c1cc(-c2ccc(OC)cc2)nc2ccccc12 | inconclusive: 6.12% | –
CN(C)c1ccc(C#Cc2ccc3cc(CCCO)oc(=O)c3c2)cc1 | inconclusive: 9.2% | –
CC(C)c1ccc(/C=C(\c2nc3ccccc3[nH]2)S(=O)(=O)c2ccccc2)cc1 | – | inconclusive: 32.6 µM [cytotoxic, single point]
Cc1cccc(NC(=S)Nc2cccc(C(F)(F)F)c2)n1 | inconclusive: 4.15% | –
COc1ccccc1/C=C/CN1CCCC(CCC(=O)NCc2ccccc2F)C1 (stereo not drawn) | inactive | –
Cc1ccc(S(=O)(=O)NCC(=O)OCCOc2ccccc2F)cc1 | inconclusive: 4.67% | –
O=C(CCNC(=O)Cn1ccc2ccccc2c1=O)NCCN1CCN(c2cccc(Cl)c2)CC1 | inconclusive: 5.63% | –
